Measurements as given in patent US20050267169A1, “Watersoluble prodrugs of propofol” (priority 2002, published 2005).
Where a name gives a salt, the structure may show the parent alone. Some of these results come from one statement about several compounds together.

Target: GABAA receptor
Test: In vitro [35S]TBPS binding assay, unwashed rat cortical membranes
Details: unwashed rat brain (cortical) membranes
Description: The data is expressed as a percentage of binding measured in the presence of solvent and are means of two experiments.
Rats were killed by decapitation and their brains rapidly removed on ice. The cerebral cortex was dissected out and homogenized in 50 volumes of ice-cold 50 mM Tris-citrate buffer (pH 7.4 at 25° C.) containing 100 mM CaCl2 using a Polytron PT 10 (setting 5, for 20 sec) and centrifuged at 20.000×g for 20 min. The resulting pellet was resuspended in 50 volumes of 50 mM Tris-citrate buffer (pH 7.4 at 25° C.) and used for the assay. [^35S]TBPS binding was determined in a final volume of 500 μL consisting of. 200 μL of tissue homogenate (0.20-0.25 mg protein), 50 μL of [^35S]TBPS (final assay concentration of 1 nM), 50 μl 2 M NaCl, 50 μL of drugs or solvent and buffer to volume. Incubations (25° C.) were initiated by addition of tissue and terminated 90 min later by a rapid filtration through glass-fiber filter strips (Whatman GF/B, Clifton, N.J.), which were rinsed twice with a 4 mL portion of ice-cold Tris-citrate buffer using a Cell Harvester filtration manifold (model M-24m Brandel, Gaithersburg, Md.). Filter bound radioactivity was quantitated by liquid scintillation spectrometry. […] Protein content was determined by the method of Lowry^20 using bovine serum albumin as a standard.

Compound | IC50 [µM] | IC50 (hydrochloride) [µM]
CC(C)c1cccc(C(C)C)c1OC(=O)C1CCCCN1 (racemic) [Compound 6b, propofol pipecolinate] | 30 to 40 | 
CC(C)c1cccc(C(C)C)c1OC(=O)[C@@H]1CCCN1 [Compound 6a, 2.6-diisopropylphenyl pirrolidin-2-carboxylate hydrochloride] |  | 30 to 40
